Laboratory results from ChEMBL document CHEMBL5352500, “HSF1 Pathway Inhibitor Clinical Candidate (CCT361814/NXP800) Developed from a Phenotypic Screen as a Potential Treatment for Refractory Ovarian Cancer and Other Malignancies” (J Med Chem, 2023).
Converted amounts (≈) assume the structure as drawn.

Experiment: physchem
Conditions: buffer, pH 1.6

With `CCN1CCN(Cc2ccc3cc(C(=O)Nc4cc(NC(=O)c5ccc6c(c5)OCCO6)ccc4F)ccc3n2)CC1` as the molecule, how does the solubility thermodynamic at 4 h read?
Its solubility thermodynamic at 4 h is 920 µg/mL (≈ 1620 µM).
